PMC10506284
Results are given in words; binding and its absence hold for the method and conditions named. Binding seen in cells or lysates may run through a third protein. These calls come from enrichment with a bait or labelling near it, and not all partners need be listed. Sequences can lack the tags named with a protein.

Chains of the proteins cited; added tags and fusions are not shown.
UniProt P08670: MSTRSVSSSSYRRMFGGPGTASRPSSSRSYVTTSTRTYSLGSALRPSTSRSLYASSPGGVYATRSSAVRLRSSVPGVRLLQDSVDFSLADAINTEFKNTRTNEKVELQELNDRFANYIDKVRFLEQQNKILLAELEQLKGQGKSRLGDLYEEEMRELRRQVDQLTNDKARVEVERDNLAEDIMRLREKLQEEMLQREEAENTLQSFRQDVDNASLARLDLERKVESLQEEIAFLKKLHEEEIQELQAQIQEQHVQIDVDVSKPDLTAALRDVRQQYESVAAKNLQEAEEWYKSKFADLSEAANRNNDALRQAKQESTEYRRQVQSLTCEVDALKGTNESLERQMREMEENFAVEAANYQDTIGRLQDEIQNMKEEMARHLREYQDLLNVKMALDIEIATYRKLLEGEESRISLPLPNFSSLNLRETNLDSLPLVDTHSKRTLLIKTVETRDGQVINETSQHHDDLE

Molecular target: T1, HA-tagged Ladinin-1 (LAD1), full-length open reading frame (human) (UniProt O00515)
T1 sequence: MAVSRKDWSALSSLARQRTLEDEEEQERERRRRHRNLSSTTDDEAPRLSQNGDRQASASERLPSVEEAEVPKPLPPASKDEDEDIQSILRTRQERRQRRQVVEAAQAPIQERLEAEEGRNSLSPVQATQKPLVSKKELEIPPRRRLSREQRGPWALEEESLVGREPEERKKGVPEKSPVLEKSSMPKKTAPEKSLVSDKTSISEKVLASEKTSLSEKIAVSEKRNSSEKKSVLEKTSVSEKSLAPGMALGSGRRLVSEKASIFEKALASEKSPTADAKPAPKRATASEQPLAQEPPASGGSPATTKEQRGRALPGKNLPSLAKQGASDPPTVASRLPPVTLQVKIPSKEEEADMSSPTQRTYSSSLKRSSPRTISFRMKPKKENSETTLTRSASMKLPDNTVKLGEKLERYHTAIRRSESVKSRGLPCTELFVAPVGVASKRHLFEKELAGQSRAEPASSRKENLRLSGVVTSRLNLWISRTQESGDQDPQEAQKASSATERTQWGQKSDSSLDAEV
Test: affinity purification with mass spectrometry; HA immunoprecipitate from MGC803 cells overexpressing HA-LAD1, SDS-PAGE, bands close to 50-70 kDa excised and identified by mass spectrometry

binding: binds
Substance: Vimentin, endogenous in MGC803 cells (from UniProt P08670 1-466)
